No constants are given. Whether binding was seen depends on the method and setting. Binding seen in cells or lysates may run through a third protein. A yes stands for co-enrichment or nearness to the bait. Other partners may have been found. Tags and fused reporters may be left off the sequences shown.
T1: Strep II/FLAG (SF)-tagged human VLGR1_CTF (human) (UniProt Q8WXG9)
T1 sequence: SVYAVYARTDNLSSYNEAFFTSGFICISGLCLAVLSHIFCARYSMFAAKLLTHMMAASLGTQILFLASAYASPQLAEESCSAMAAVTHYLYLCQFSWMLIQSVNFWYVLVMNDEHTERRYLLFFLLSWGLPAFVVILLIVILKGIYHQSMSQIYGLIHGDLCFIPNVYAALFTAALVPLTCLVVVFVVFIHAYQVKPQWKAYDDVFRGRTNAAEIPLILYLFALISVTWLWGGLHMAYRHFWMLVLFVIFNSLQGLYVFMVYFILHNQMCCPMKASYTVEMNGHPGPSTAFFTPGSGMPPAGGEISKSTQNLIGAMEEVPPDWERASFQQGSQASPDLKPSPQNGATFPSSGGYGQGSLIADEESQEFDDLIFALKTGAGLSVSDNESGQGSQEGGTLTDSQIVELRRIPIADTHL

By UniProt entry, the sequences of proteins in these tests, tags left out. Where a name states a change or a piece, a line headed by the entry shows the natural chain unless it says otherwise.
UniProt Q9UKV5: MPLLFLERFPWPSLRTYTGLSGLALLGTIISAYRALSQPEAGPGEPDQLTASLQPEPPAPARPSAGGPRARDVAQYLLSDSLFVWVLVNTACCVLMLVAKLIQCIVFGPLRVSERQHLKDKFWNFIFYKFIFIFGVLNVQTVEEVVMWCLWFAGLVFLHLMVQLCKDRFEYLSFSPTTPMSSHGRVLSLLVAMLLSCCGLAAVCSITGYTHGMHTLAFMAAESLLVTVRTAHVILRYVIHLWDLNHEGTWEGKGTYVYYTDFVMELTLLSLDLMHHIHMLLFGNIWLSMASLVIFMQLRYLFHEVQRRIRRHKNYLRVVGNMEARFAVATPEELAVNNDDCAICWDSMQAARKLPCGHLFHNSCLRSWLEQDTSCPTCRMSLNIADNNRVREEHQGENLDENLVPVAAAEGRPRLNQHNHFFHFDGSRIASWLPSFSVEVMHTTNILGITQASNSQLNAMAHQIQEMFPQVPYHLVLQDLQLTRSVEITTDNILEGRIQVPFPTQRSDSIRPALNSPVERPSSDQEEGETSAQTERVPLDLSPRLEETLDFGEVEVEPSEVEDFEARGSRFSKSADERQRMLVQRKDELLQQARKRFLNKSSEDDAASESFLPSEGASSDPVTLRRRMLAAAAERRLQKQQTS
UniProt Q8IXI2: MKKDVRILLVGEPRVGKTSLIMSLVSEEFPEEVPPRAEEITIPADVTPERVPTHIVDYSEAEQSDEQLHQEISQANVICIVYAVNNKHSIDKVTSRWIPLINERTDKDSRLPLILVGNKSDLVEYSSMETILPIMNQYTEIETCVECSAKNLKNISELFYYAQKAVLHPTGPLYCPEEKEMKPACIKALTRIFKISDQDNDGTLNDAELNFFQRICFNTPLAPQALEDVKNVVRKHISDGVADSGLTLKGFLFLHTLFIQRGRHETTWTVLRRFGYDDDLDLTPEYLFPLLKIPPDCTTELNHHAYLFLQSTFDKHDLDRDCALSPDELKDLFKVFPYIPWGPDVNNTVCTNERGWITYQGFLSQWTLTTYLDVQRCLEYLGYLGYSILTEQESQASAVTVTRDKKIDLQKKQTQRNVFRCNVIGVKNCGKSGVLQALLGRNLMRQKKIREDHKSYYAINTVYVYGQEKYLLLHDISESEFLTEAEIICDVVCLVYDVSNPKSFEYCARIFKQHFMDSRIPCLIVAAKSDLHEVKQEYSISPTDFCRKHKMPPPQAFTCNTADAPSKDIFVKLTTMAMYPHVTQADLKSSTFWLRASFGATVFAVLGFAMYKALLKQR
UniProt O95292: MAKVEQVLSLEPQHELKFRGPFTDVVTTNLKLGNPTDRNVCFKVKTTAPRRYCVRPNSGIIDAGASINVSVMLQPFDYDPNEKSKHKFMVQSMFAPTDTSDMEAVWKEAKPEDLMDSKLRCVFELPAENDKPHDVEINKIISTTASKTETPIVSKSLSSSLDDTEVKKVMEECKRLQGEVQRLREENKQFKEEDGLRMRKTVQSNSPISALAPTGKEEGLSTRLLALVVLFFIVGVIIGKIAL
UniProt O95831: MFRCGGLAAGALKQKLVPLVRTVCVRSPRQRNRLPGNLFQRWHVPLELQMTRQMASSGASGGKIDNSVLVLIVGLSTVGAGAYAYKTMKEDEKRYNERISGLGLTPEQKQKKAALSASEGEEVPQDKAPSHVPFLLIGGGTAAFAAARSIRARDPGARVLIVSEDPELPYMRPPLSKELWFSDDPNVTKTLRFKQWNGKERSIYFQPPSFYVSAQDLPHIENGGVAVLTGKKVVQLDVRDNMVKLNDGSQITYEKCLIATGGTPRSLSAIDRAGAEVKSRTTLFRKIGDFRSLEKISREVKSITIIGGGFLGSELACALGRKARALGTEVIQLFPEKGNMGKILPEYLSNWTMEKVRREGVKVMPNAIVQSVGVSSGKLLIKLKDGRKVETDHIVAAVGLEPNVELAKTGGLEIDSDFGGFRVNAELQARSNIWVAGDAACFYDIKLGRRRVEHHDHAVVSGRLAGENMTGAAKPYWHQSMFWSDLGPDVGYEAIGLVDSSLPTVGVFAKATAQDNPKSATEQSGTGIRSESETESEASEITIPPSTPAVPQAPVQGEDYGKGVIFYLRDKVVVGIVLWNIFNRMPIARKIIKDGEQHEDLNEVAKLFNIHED


Target: T1, Strep II/FLAG (SF)-tagged human VLGR1_CTF (human)
Experiment: affinity purification with mass spectrometry; tandem affinity purification (Strep-Tactin Superflow, then anti-FLAG M2 agarose; elution with desthiobiotin and FLAG peptide) of N- and C-terminally SF-tagged VLGR1_CTF expressed 48 h in HEK293T cells; LC-MS/MS; preys of mock and RAF1 TAPs excluded; N- and C-tagged baits pooled

Molecule | binding
Autocrine motility factor receptor (from UniProt Q9UKV5 1-643) | binds
Lysocardiolipin acyltransferase 1 (enzyme, UniProt Q6UWP7 1-414) MHSRGREIVVLLNPWSINEAVSSYCTYFIKQDSKSFGIMVSWKGIYFILTLFWGSFFGSIFMLSPFLPLMFVNPSWYRWINNRLVATWLTLPVALLETMFGVKVIITGDAFVPGERSVIIMNHRTRMDWMFLWNCLMRYSYLRLEKICLKASLKGVPGFGWAMQAAAYIFIHRKWKDDKSHFEDMIDYFCDIHEPLQLLIFPEGTDLTENSKSRSNAFAEKNGLQKYEYVLHPRTTGFTFVVDRLREGKNLDAVHDITVAYPHNIPQSEKHLLQGDFPREIHFHVHRYPIDTLPTSKEDLQLWCHKRWEEKEERLRSFYQGEKNFYFTGQSVIPPCKSELRVLVVKLLSILYWTLFSPAMCLLIYLYSLVKWYFIITIVIFVLQERIFGGLEIIELACYRLLHKQPHLNSKKNE | binds
ER resident protein 44 (protein, UniProt Q9BS26 30-406) EITSLDTENIDEILNNADVALVNFYADWCRFSQMLHPIFEEASDVIKEEFPNENQVVFARVDCDQHSDIAQRYRISKYPTLKLFRNGMMMKREYRGQRSVKALADYIRQQKSDPIQEIRDLAEITTLDRSKRNIIGYFEQKDSDNYRVFERVANILHDDCAFLSAFGDVSKPERYSGDNIIYKPPGHSAPDMVYLGAMTNFDVTYNWIQDKCVPLVREITFENGEELTEEGLPFLILFHMKEDTESLEIFQNEVARQLISEKGTINFLHADCDKFRHPLLHIQKTPADCPVIAIDSFRHMYVFGDFKDVLIPGKLKQFVFDLHSGKLHREFHHGPDPTDTAPGEQAQDVASSPPESSFQKLAPSEYRYTLLRDRDEL | binds
ERGIC-53 (protein, UniProt P49257 31-510) DGVGGDPAVALPHRRFEYKYSFKGPHLVQSDGTVPFWAHAGNAIPSSDQIRVAPSLKSQRGSVWTKTKAAFENWEVEVTFRVTGRGRIGADGLAIWYAENQGLEGPVFGSADLWNGVGIFFDSFDNDGKKNNPAIVIIGNNGQIHYDHQNDGASQALASCQRDFRNKPYPVRAKITYYQNTLTVMINNGFTPDKNDYEFCAKVENMIIPAQGHFGISAATGGLADDHDVLSFLTFQLTEPGKEPPTPDKEISEKEKEKYQEEFEHFQQELDKKKEEFQKGHPDLQGQPAEEIFESVGDRELRQVFEGQNRIHLEIKQLNRQLDMILDEQRRYVSSLTEEISKRGAGMPGQHGQITQQELDTVVKTQHEILRQVNEMKNSMSETVRLVSGMQHPGSAGGVYETTQHFIDIKEHLHIVKRDIDNLVQRNMPSNEKPKCPELPPFPSCLSTVHFIIFVVVQTVLFIGYIMYRSQQEAAAKKFF | binds

The next lines start with the values.

binding | Molecule
binds | Mitochondrial Rho GTPase 1 (from UniProt Q8IXI2 1-618)
binds | vesicle-associated membrane protein-associated protein B (from UniProt O95292 1-243)
binds | Mitochondrial apoptosis-inducing factor 1 (from UniProt O95831)
binds | Presenilin-2 (from UniProt P49810 1-448)
binds | Glucose-6-phosphatase 3 (enzyme, UniProt Q9BUM1 1-346) MESTLGAGIVIAEALQNQLAWLENVWLWITFLGDPKILFLFYFPAAYYASRRVGIAVLWISLITEWLNLIFKWFLFGDRPFWWVHESGYYSQAPAQVHQFPSSCETGPGSPSGHCMITGAALWPIMTALSSQVATRARSRWVRVMPSLAYCTFLLAVGLSRIFILAHFPHQVLAGLITGAVLGWLMTPRVPMERELSFYGLTALALMLGTSLIYWTLFTLGLDLSWSISLAFKWCERPEWIHVDSRPFASLSRDSGAALGLGIALHSPCYAQVRRAQLGNGQKIACLVLAMGLLGPLDWLGHPPQISLFYIFNFLKYTLWPCLVLALVPWAVHMFSAQEAPPIHSS
